Our source for the binding values is doi:10.1101/2020.09.29.317958.

These are yes or no findings as the source states them, for the method shown. In cells and extracts the contact can be indirect. A result given as binding can be weak or reduced; the word gives no strength. Tags and fused reporters may be left off the sequences shown.

The target in this test is endogenous NFATc3 (mouse (endogenous in Neuro2A)). The test is described as follows: proximity ligation.

B1: endogenous Trim39 (protein, UniProt Q9ESN2 1-488)
chain: MAETSLLEAGASAASTAAALENLQVEASCSVCLEYLKEPVIIECGHNFCKACITRWWEDLERDFPCPVCRKTSRYRSLRPNRQLGSMVEIAKQLQTVKRKIRDESLCSQHHEPLSLFCYEDQEAVCLICAISHTHRPHTVVPMDDATQEYKEKLQKCLEPLEQKLQEITCCKASEEKKPGELKRLVESRRQQILKEFEELHRRLDEEQQTLLSRLEEEEQDILQRLRENAAHLGDRRRDLAHLAAEVEGKCLQSGFEMLKDVKSTLEKCEKVKTMEVTSVSIELEKNFSNFPRQYFALRKILKQLIADVTLDPETAHPNLVLSEDRKSVKFVETRLRDLPDTPQRFTFYPCVLATEGFTSGRHYWEVEVGDKTHWAVGVCRDSVSRKGELTPLPETGYWRVRLWNGDKYAATTTPFTPLHIKVKPKRVGIFLDYEAGTLSFYNVTDRSHIYTFTDTFTEKLWPLFYPGIRAGRKNAAPLTIRPPTDWE
Take B1: the binding entry is “binds”.

B2: Flag-Trim39 (protein, UniProt Q9ESN2 1-488)
chain: MAETSLLEAGASAASTAAALENLQVEASCSVCLEYLKEPVIIECGHNFCKACITRWWEDLERDFPCPVCRKTSRYRSLRPNRQLGSMVEIAKQLQTVKRKIRDESLCSQHHEPLSLFCYEDQEAVCLICAISHTHRPHTVVPMDDATQEYKEKLQKCLEPLEQKLQEITCCKASEEKKPGELKRLVESRRQQILKEFEELHRRLDEEQQTLLSRLEEEEQDILQRLRENAAHLGDRRRDLAHLAAEVEGKCLQSGFEMLKDVKSTLEKCEKVKTMEVTSVSIELEKNFSNFPRQYFALRKILKQLIADVTLDPETAHPNLVLSEDRKSVKFVETRLRDLPDTPQRFTFYPCVLATEGFTSGRHYWEVEVGDKTHWAVGVCRDSVSRKGELTPLPETGYWRVRLWNGDKYAATTTPFTPLHIKVKPKRVGIFLDYEAGTLSFYNVTDRSHIYTFTDTFTEKLWPLFYPGIRAGRKNAAPLTIRPPTDWE
Consider B2, for which the binding entry is “binds”.
